Assay results: the supplement of paper PMC4683952
Structures can show the parent of a compound that is named as a salt. This is one part of the list. Cut-off read from the data, not from the text of the source: active = 2.5 or more and inactive = the rest. This data set is noisy: repeats of one test often differ as much as different tests do.

Each molecule was assayed on Lgr5 (MarsCy1-Lgr5-EGFP, U2OS) (assay: cell-surface Lgr5 expression (SCi1 fluorescence, background-subtracted) relative to WT control (fold of WT control); higher = more Lgr5 at the plasma membrane). Details: U2OS MarsCy1-Lgr5-EGFP stable; treatment time: overnight; library: Prestwick; 20 µM.

cell-surface Lgr5 expression, active:
Cc1c(Nc2ncccc2C(=O)O)cccc1C(F)(F)F [Flunixin meglumine] 3.44, CC1(C)O[C@@H]2C[C@H]3[C@@H]4C[C@H](F)C5=CC(=O)C=C[C@]5(C)[C@H]4[C@@H](O)C[C@]3(C)[C@]2(C(=O)CO)O1 [Flunisolide] 3.92, O=c1[nH]c(=O)n([C@H]2C[C@H](O)[C@@H](CO)O2)cc1I [Idoxuridine] 2.69, CC1(C)O[C@@H]2C[C@H]3[C@@H]4C[C@H](F)C5=CC(=O)CC[C@]5(C)[C@H]4[C@@H](O)C[C@]3(C)[C@]2(C(=O)CO)O1 [Flurandrenolide] 3.47, CCC(C)(C)C(=O)O[C@H]1C[C@@H](C)C=C2C=C[C@H](C)[C@H](CC[C@@H]3C[C@@H](O)CC(=O)O3)[C@H]21 [Simvastatin] 2.52, C[N+]1(C)CCCC1C(=O)O (stereo not drawn) [Stachydrine hydrochloride] 3.24, CC[N+](C)(CC)CCC[n+]1c(-c2ccccc2)c2cc(N)ccc2c2ccc(N)cc21 [Propidium iodide] 2.79

cell-surface Lgr5 expression, inactive:
Cc1cc(C(C)(C)C)cc(C)c1CC1=NCCN1 [Xylometazoline hydrochloride] 0.851, CC(C)(CO)[C@@H](O)C(=O)NCCC(=O)O [Pantothenic acid calcium salt monohydrate] 1.68, CCN(CC)CCOCCOC(=O)C1(c2ccccc2)CCCC1 [Carbetapentane citrate] 0.718, N[C@H]1CONC1=O [(S)-(-)-Cycloserine] 0.807, CCCCC1C(=O)N(c2ccccc2)N(c2ccc(O)cc2)C1=O (stereo not drawn) [Oxyphenbutazone] 0.896, COc1cc2nc(N3CCN(C(=O)C4COc5ccccc5O4)CC3)nc(N)c2cc1OC (stereo not drawn) [Doxazosin mesylate] 2.19, O=c1c(O)c(-c2ccc(O)cc2)oc2cc(O)cc(O)c12 [Kaempferol] 0.978, C=CCOc1ccccc1OCC(O)CNC(C)C (stereo not drawn) [Oxprenolol hydrochloride] 1.21, NC[C@H]1O[C@H](O[C@H]2[C@H](O)[C@@H](O[C@H]3O[C@H](CO)[C@@H](O)[C@H](N)[C@H]3O)[C@H](N)C[C@@H]2N)[C@H](N)C[C@@H]1O [Tobramycin] 2.03, Cc1c(N)c(=O)n(-c2ccccc2)n1C [Ampyrone] 1.51, CC(C)NCC(O)COc1cccc2[nH]ccc12 (stereo not drawn) [Pindolol] 1.42, OC(CCN1CCCC1)(c1ccccc1)C1CCCCC1 (stereo not drawn) [Procyclidine hydrochloride] 2.35, CC(CN(C)C)CN1c2ccccc2CCc2ccccc21 (stereo not drawn) [Trimipramine maleate salt] 2.18, COC(=O)[C@H]1[C@H]2C[C@H]3c4[nH]c5ccccc5c4CCN3C[C@H]2CC[C@@H]1O [Rauwolscine hydrochloride] 1.81, Nc1ncnc2c1ncn2[C@@H]1O[C@@H]2COP(=O)(O)O[C@H]2[C@H]1O [(-)-Adenosine 3',5'-cyclic monophosphate] 1.45, C[C@H]1[C@H]2CC[C@H]3[C@@H]4CC=C5C[C@@H](N(C)C)CC[C@]5(C)[C@H]4CC[C@]23CN1C [Conessine] 2.23, CC(C)(C)NC(=O)[C@H]1CC[C@H]2[C@@H]3CC[C@H]4NC(=O)C=C[C@]4(C)[C@H]3CC[C@]12C [Finasteride] 2.13, Nc1nc(N)c2nc(-c3ccccc3)c(N)nc2n1 [Triamterene] 1.25, C=C1CC[C@H](O)C/C1=C/C=C1\CCC[C@]2(C)[C@@H]([C@H](C)/C=C/[C@H](C)C(C)C)CC[C@@H]12 [Calciferol] 0.71, CCCCOc1ccc(C(=O)CCN2CCCCC2)cc1 [Dyclonine hydrochloride] 1.25, C=C1C(=O)O[C@H]2[C@H]1CC/C(C)=C/CC[C@@]1(C)O[C@@H]21 [Parthenolide] 0.51, CN1[C@@H]2CC[C@H]1C[C@@H](OC(=O)C(O)c1ccccc1)C2 (mixture of isomers) [Homatropine hydrobromide (R,S)] 1.59, CC(C)(C)CC(C)(C)c1ccc(OCCOCC[N+](C)(C)Cc2ccccc2)cc1 [Benzethonium chloride] 1.59, CC1O[C@H](O[C@]2(O[C@H]3CC[C@@]4(C)C(=CC[C@H]5[C@@H]6C[C@H]7[C@H]([C@H](C)[C@H]8CC[C@H](C)CN87)[C@@]6(C)CC[C@@H]54)C3)C[C@@H](O[C@@H]3OC(CO)[C@@H](O)[C@@H](O)C3O)[C@@H](O)C(CO)O2)C(O)[C@@H](O)[C@H]1O (stereo partly drawn) [Solanine alpha] 1.73, CC[C@H](c1ccc(O)cc1)[C@@H](CC)c1ccc(O)cc1 [Hexestrol] 1.56, C[C@H](CS)C(=O)N1CCC[C@H]1C(=O)O [Captopril] 1.3, O=C(O)c1cccnc1 [Niacin] 1.13, CCCCc1oc2ccccc2c1C(=O)c1cc(I)c(OCCN(CC)CC)c(I)c1 [Amiodarone hydrochloride] 1.07, Cc1cccc(N(C)C(=S)Oc2ccc3ccccc3c2)c1 [Tolnaftate] 1.45, NNC(=O)c1ccncc1 [Isoniazid] 0.205, CCC[C@@H]1C[C@@H](C(=O)N[C@@H]([C@H]2O[C@H](SC)[C@H](O)[C@@H](O)[C@H]2O)[C@@H](C)O)N(C)C1 [Lincomycin hydrochloride] 1.51, CN1CCCN=C1/C=C/c1cccs1 [Pyrantel tartrate] 1.85, CC12CC3CC(C)(C1)CC(N)(C3)C2 [Memantine Hydrochloride] 1.59, C#C[C@]1(O)CC[C@H]2[C@@H]3CCC4=Cc5oncc5C[C@]4(C)[C@H]3CC[C@@]21C [Danazol] 0.918, O=C(Nc1ccc([N+](=O)[O-])cc1Cl)c1cc(Cl)ccc1O [Niclosamide] 1.39, CCOc1ccc(Cc2nccc3cc(OCC)c(OCC)cc23)cc1OCC [Ethaverine hydrochloride] 1.72, CC(C)NNC(=O)c1ccncc1 [Iproniazide phosphate] 1.1, CCN(CC)CCNC(=O)c1cc(Br)c(N)cc1OC [Bromopride] 1.86, OC(CCN1CCCCC1)(c1ccccc1)c1ccccc1 [Pridinol methanesulfonate salt] 1.62, C[N+](C)(C)CCOC(N)=O [Carbachol] 1.71, CC(C)(C)NC[C@H](O)COc1cccc2c1CCCC2=O [(-) -Levobunolol hydrochloride] 1.5, Nc1ncn(C2OC(CO)C(O)C2O)c(=O)n1 (stereo not drawn) [Azacytidine-5] 2.22, CCOC(=O)C1=C(C)NC(C)=C(C(=O)OC)C1c1cccc(Cl)c1Cl (stereo not drawn) [Felodipine] 0.651, C[C@H](CCC(=O)O)[C@H]1CC[C@H]2[C@@H]3C(=O)C[C@@H]4CC(=O)CC[C@]4(C)[C@H]3CC(=O)[C@]12C [Dehydrocholic acid] 0.926, O=C(O)CCC(=O)c1ccc(-c2ccccc2)cc1 [Fenbufen] 1.84, CN1CCN2c3ccccc3Cc3ccccc3C2C1 (stereo not drawn) [Mianserine hydrochloride] 1.13, N[C@@H](Cc1ccc(O)c(O)c1)C(=O)O [Levodopa] 1.42, CC(=O)Oc1ccc(C(c2ccc(OC(C)=O)cc2)c2ccccn2)cc1 [Bisacodyl] 1.39, CCCNC(C)(C)COC(=O)c1ccccc1 [Meprylcaine hydrochloride] 1.15, CC(NCCc1ccc(O)cc1)C(O)c1ccc(O)cc1 (stereo not drawn) [Ritodrine hydrochloride] 2.06, C[N+](C)(CCOc1ccccc1)Cc1ccccc1.O=C([O-])c1cc2ccccc2cc1O [Bephenium hydroxynaphthoate] 1.88, CCC1(C)CC(=O)NC1=O (stereo not drawn) [Ethosuximide] 1.27, Nc1ccc(/N=N/c2ccccc2)c(N)n1 [Phenazopyridine hydrochloride] 1, CN(C)CCOC(=O)C(c1ccccc1)C1(O)CCCC1 (stereo not drawn) [Cyclopentolate hydrochloride] 1.31, CC1=CC(=O)C2=C(C)CC[C@@H]3[C@H](OC(=O)[C@H]3C)[C@@H]12 [Leucomisine] 1.49, CCC(=O)O[C@]1(C(=O)SCF)[C@H](C)C[C@H]2[C@@H]3C[C@H](F)C4=CC(=O)C=C[C@]4(C)[C@@]3(F)[C@@H](O)C[C@@]21C [Fluticasone propionate] 2.07, OCCN1CCN(CC/C=C2/c3ccccc3Sc3ccc(Cl)cc32)CC1 [Zuclopenthixol hydrochloride] 1.92, O=C(O)c1ccccc1Nc1cccc(C(F)(F)F)c1 [Flufenamic acid] 2.36, O=C1O[C@H]([C@@H](O)CO)C(O)=C1O [Ascorbic acid] 1.69, COc1cc(N)c(Cl)cc1C(=O)NC1CCN(CCCOc2ccc(F)cc2)CC1OC (stereo not drawn) [Cisapride] 0.703, CN(C)CCC(c1ccc(Cl)cc1)c1ccccn1 (stereo not drawn) [Chlorpheniramine maleate] 0.978
